In the assay the target is Nucleus Accumbens-associated protein 2 (NACC2), wild type (human) (UniProt Q96BF6). The assay is described as follows: condition: only with sample buffer containing β-mercaptoethanol; reducing SDS-PAGE and immunoblot of multimers; same HEK293T lysates in E1A buffer as in the non-reducing assay, prepared in reducing sample buffer (10% β-mercaptoethanol, 2% SDS); immunoblot for NACC2. (In general: Immunoblotting shows a protein as a band on a membrane.)

No constants are given. Whether binding was seen depends on the method and setting.

B1: Nucleus Accumbens-associated protein 2 (NACC2), wild type (natural protein, human, UniProt Q96BF6 1-587, looked up)
chain: MSQMLHIEIPNFGNTVLGCLNEQRLLGLYCDVSIVVKGQAFKAHRAVLAASSLYFRDLFSGNSKSAFELPGSVPPACFQQILSFCYTGRLTMTASEQLVVMYTAGFLQIQHIVERGTDLMFKVSSPHCDSQTAVIEDAGSEPQSPCNQLQPAAAAAAPYVVSPSVPIPLLTRVKHEAMELPPAGPGLAPKRPLETGPRDGVAVAAGAAVAAGTAPLKLPRVSYYGVPSLATLIPGIQQMPYPQGERTSPGASSLPTTDSPTSYHNEEDEEDDEAYDTMVEEQYGQMYIKASGSYAVQEKPEPVPLESRSCVLIRRDLVALPASLISQIGYRCHPKLYSEGDPGEKLELVAGSGVYITRGQLMNCHLCAGVKHKVLLRRLLATFFDRNTLANSCGTGIRSSTSDPSRKPLDSRVLNAVKLYCQNFAPSFKESEMNVIAADMCTNARRVRKRWLPKIKSMLPEGVEMYRTVMGSAAASVPLDPEFPPAAAQVFEQRIYAERRGDAATIVALRTDAVNVDLSAAANPAFDAGEEVDGAGSVIQEVAAPEPLPADGQSPPQPFEQGGGGPSRPQTPAAAARRPEGTYAGTL
notes: NACC2, human, wild type; gene bought from Origene and subcloned into pCDNA3 by EcoRI and XbaI; Expressed alone (multimerization assay) or together with the fusion proteins (co-IP); also called wild-type NACC2; native NACC2; source: HEK293T, transfected (pCDNA3, CaCl2), in lysate (E1A buffer)
On to B1, for which the binding result was “no binding”.

The values above are taken from PMC11210774, “Critical domains for NACC2-NTRK2 fusion protein activation” (PLOS ONE, 2024).
